Assay results published in the supplement of paper PMC7666118.
The other results are listed elsewhere or left out.

Amino acid sequences for entries named in this document (tags omitted). A change or cut given only in a name is not applied to a line headed by its entry.
UniProt Q14019: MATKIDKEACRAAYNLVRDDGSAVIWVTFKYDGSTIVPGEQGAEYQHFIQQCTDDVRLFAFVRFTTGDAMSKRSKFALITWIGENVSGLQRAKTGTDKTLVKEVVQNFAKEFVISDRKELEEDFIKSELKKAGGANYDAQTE
UniProt P26374: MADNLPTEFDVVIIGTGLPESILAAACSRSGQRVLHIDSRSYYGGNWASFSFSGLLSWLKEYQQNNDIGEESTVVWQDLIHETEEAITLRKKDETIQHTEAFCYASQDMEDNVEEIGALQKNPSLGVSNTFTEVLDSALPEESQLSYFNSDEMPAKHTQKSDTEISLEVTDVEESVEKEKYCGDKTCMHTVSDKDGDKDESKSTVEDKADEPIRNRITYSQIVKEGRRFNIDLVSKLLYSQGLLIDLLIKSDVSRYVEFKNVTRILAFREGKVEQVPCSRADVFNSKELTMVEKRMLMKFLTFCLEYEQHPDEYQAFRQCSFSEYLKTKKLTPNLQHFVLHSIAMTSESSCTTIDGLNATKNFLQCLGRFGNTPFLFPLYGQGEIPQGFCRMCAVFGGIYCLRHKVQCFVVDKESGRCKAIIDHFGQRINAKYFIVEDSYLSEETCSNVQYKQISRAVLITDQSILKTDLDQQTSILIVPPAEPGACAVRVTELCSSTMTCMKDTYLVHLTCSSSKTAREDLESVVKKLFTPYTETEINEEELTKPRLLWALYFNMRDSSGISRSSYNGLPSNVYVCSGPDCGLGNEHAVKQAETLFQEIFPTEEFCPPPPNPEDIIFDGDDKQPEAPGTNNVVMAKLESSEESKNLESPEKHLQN
UniProt P53675: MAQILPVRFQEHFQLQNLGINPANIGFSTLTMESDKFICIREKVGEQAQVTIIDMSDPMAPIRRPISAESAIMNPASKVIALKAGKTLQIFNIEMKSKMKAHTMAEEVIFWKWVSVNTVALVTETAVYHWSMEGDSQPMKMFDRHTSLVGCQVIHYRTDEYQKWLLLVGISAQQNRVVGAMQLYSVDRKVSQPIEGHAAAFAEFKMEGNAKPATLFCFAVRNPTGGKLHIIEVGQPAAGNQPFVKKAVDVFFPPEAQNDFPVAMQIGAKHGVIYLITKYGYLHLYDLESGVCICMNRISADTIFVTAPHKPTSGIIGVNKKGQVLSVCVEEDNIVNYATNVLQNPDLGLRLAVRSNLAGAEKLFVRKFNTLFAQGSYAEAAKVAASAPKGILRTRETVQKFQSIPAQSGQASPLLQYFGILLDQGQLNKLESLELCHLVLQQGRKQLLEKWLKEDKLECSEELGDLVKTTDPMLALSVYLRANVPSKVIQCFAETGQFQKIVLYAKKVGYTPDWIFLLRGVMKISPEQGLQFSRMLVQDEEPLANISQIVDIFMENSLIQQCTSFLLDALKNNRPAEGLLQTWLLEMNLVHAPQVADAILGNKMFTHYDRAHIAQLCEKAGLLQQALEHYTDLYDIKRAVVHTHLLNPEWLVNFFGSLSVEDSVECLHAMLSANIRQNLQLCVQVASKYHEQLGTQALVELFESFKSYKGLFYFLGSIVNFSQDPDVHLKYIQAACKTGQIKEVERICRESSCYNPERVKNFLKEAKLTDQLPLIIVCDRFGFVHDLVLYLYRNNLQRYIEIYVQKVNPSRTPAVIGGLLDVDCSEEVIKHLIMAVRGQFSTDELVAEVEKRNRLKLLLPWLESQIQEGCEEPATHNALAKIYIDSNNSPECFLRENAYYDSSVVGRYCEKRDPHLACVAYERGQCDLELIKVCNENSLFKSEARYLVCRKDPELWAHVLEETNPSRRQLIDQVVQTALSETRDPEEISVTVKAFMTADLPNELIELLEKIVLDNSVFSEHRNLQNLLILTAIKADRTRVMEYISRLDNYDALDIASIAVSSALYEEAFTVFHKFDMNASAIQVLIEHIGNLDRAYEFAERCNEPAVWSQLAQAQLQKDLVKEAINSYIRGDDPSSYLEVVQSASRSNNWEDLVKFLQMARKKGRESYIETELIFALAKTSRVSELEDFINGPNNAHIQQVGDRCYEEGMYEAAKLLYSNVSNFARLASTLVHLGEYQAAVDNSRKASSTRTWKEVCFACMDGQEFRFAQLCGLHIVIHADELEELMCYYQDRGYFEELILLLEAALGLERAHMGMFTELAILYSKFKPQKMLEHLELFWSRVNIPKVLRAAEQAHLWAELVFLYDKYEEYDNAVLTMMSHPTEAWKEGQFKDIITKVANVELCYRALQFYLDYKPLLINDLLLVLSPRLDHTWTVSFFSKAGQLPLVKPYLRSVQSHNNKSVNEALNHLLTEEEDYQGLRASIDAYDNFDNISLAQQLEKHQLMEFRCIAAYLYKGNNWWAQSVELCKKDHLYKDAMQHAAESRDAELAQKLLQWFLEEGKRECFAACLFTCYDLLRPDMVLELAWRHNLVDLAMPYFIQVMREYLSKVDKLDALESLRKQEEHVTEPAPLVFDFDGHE
UniProt Q14061: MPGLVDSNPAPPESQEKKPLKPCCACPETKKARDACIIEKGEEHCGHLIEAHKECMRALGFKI
UniProt Q7Z7K6: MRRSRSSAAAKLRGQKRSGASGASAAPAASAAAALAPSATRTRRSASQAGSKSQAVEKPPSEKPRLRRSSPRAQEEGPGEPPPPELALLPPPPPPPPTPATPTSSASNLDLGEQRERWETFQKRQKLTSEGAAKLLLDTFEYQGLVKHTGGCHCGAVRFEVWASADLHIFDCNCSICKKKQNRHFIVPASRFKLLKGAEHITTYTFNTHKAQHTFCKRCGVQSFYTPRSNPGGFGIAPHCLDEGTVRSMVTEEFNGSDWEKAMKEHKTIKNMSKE
UniProt Q6UUV9: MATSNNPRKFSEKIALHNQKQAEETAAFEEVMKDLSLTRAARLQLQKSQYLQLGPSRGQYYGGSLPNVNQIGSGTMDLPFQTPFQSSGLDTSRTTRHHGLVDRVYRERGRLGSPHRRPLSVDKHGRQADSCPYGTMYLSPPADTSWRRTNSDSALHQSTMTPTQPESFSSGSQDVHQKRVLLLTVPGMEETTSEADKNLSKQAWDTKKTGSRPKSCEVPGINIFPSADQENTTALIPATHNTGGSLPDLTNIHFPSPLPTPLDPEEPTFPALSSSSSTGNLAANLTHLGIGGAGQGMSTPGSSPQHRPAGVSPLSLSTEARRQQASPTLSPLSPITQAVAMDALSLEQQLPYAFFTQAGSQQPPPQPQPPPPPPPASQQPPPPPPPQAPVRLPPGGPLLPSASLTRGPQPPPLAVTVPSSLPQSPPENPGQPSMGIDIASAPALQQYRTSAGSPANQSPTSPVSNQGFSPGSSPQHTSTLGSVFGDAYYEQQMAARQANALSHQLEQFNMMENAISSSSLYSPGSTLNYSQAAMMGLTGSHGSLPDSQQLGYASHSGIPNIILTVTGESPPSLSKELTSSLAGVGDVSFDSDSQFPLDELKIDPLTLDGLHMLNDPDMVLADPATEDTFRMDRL
UniProt Q53ET0: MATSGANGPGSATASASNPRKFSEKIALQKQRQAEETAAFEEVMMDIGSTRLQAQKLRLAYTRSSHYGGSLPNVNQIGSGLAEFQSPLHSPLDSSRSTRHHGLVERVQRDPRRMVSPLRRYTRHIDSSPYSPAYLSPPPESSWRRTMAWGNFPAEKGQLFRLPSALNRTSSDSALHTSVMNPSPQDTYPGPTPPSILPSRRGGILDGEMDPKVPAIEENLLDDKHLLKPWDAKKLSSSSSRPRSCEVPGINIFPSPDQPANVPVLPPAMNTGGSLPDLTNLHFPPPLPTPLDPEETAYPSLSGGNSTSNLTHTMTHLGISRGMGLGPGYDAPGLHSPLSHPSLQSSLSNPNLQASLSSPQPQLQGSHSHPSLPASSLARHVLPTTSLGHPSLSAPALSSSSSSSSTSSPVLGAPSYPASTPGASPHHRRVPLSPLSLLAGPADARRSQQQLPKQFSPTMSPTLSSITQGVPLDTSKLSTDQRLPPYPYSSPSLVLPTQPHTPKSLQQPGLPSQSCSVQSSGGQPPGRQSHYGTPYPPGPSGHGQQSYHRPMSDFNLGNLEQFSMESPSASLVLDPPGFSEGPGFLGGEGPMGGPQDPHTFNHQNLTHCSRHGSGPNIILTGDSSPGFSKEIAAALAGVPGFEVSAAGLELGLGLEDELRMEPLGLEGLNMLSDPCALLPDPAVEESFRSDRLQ
UniProt Q9Y6G5, whole entry: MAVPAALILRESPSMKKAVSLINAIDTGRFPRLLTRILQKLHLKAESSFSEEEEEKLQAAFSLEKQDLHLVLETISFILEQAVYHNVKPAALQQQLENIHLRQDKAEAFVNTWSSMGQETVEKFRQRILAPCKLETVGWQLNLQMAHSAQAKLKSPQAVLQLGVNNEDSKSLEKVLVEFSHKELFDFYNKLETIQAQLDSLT
UniProt Q9HC77: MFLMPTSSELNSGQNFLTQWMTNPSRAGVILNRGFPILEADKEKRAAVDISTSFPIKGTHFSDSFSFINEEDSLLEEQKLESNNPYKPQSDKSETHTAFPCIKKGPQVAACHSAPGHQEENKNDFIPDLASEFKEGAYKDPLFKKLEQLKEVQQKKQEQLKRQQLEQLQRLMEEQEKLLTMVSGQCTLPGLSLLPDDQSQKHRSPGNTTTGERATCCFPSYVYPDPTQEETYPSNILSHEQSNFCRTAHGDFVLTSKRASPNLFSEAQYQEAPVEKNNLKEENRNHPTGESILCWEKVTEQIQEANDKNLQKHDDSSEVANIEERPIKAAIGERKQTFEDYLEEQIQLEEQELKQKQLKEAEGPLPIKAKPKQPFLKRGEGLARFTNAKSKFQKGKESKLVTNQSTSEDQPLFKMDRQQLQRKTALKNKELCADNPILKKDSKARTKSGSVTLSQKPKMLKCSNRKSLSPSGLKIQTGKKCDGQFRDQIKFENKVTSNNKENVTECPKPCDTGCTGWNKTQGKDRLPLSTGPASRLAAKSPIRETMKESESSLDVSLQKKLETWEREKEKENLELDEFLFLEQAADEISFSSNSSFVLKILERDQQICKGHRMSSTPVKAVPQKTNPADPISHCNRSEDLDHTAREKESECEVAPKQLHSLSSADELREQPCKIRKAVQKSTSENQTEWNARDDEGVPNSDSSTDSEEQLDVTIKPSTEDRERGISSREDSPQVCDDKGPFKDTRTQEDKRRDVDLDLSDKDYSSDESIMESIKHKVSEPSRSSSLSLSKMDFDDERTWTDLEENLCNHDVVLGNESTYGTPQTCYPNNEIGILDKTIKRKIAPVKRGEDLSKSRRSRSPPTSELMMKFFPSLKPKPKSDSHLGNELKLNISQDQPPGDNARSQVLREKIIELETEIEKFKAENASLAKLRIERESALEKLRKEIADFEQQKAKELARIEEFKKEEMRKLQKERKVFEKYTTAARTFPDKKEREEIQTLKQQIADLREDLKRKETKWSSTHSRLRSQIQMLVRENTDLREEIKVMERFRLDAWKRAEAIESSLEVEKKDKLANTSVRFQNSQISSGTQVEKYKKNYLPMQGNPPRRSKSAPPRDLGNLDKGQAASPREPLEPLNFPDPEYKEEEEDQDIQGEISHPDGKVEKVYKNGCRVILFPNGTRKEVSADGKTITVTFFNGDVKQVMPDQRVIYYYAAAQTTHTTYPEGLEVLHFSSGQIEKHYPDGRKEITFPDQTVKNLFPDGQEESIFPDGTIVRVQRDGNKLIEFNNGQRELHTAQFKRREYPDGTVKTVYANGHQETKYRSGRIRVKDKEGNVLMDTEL

These targets were tested with COc1ccc(Cn2ccc3cc(C)c(C(=O)NO)cc32)cc1 (assay: dose-dependent thermal stabilisation call (2D-TPP, DLPTP, 10% FDR) (binary (1 = stabilised)); higher = stabilised by the compound). Details: system: HL-60 intact cells; concentration range 0.04-10 µM.
Experimental: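 2D thermal proteome profiling in intact HL-60 cells treated with BRD-3811 (0, 0.04, 0.29, 2, 10 uM) for 90 min at 37 C, then heated 3 min at one of 12 temperatures (42-63.9 C). Soluble protein was quantified by TMT10 MS. The value is the DLPTP call of the paper: dose-dependent thermal stabilisation over all temperatures at 10% FDR (F-test of a dose-response against a flat model); one experiment, one call per tested protein.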

Target | dose-dependent thermal stabilisation call
CD63 (UniProt P08962) | inactive: 0
COPS7A (UniProt Q9UBW8) | inactive: 0
COTL1 (UniProt Q14019) | inactive: 0
CHML (UniProt P26374) | inactive: 0
CLTC (UniProt Q00610) | inactive: 0
CENPC1 (UniProt Q03188) | inactive: 0
CD83 (UniProt Q01151) | inactive: 0
CPOX (UniProt P36551) | active: 1
CLTCL1 (UniProt P53675) | inactive: 0
COX17 (UniProt Q14061) | inactive: 0
COMT (UniProt P21964) | inactive: 0
CEBPE (UniProt Q15744) | inactive: 0
CDK9 (UniProt P50750) | inactive: 0
COMMD6 (UniProt Q7Z4G1) | inactive: 0
CRIPT (UniProt Q9P021) | inactive: 0
CKS1B (UniProt P61024) | inactive: 0
CNNM2 (UniProt Q9H8M5) | inactive: 0
CEP27 (UniProt Q9NVX0) | inactive: 0

Target | dose-dependent thermal stabilisation call
CENPV (UniProt Q7Z7K6) | inactive: 0
CRTC1 (UniProt Q6UUV9) | inactive: 0
CKAP2 (UniProt Q8WWK9) | inactive: 0
CDC2L1 (UniProt P21127) | inactive: 0
COQ6 (UniProt Q9Y2Z9) | inactive: 0
CD53 (UniProt P19397) | inactive: 0
CRTC2 (UniProt Q53ET0) | inactive: 0
CHMP4A (UniProt Q9BY43) | inactive: 0
CNOT10 (UniProt Q9H9A5) | inactive: 0
CNOT3 (UniProt O75175) | inactive: 0
CLPB (UniProt Q9H078) | inactive: 0
COMMD10 (UniProt Q9Y6G5) | inactive: 0
CDYL (UniProt Q9Y232) | inactive: 0
CORO1C (UniProt Q9ULV4) | inactive: 0
COG5 (UniProt Q9UP83) | inactive: 0
CNOT6L (UniProt Q96LI5) | inactive: 0
CENPJ (UniProt Q9HC77) | inactive: 0
CRNKL1 (UniProt Q9BZJ0) | inactive: 0

Looked up one by one from the list above (3):
Target | dose-dependent thermal stabilisation call
COG5 (UniProt Q9UP83) | inactive: 0
CNOT10 (UniProt Q9H9A5) | inactive: 0
CENPV (UniProt Q7Z7K6) | inactive: 0
